{
  "source": "patent US5747472A",
  "about": "“Therapeutic methods for using ARA-G derivatives” (Glaxo Wellcome Inc., priority 1990, dated 1998)",
  "system": "T-cell",
  "assay": "Inhibition of T-cell growth (statement)",
  "format": "cell-based",
  "settings": "in words",
  "note": "For at least one compound, name, drawing or mass did not settle the structure.",
  "data": [
    {"smiles": "Nc1nc2c(ncn2[C@@H]2O[C@H](CO)[C@@H](O)[C@@H]2O)c(=O)[nH]1", "note": "[araG, arabinofuranosyl guanine]", "values": [
      {"measurement": "inhibition of T-cell growth", "value": "selective inhibitor of T-cell growth"}
    ]}
  ]
}
